Assay results reported in paper PMC8967839.
No constants are given. Whether binding was seen depends on the method and setting. In cells and extracts the contact can be indirect. These calls come from enrichment with a bait or labelling near it, and not all partners need be listed.

B1: S5 (protein, UniProt Q8YPJ5 1-174)
chain: MATGRRKANRTKKEETNWQERVIQIRRVSKVVKGGKKLSFRAIVVVGNERGQVGVGVGKASDVIGAVKKGVADGKKHLIDIPITKSNSIPHPIDGVGGGAKVMMRPAAPGTGVIAGGAVRTVLELAGVRNVLAKQLGSNNPLNNARAAVNALSTLRTLAEVAEDRGIAIEKLYI
B2: L1 (protein, UniProt Q8YLJ7 1-238)
chain: MTKKVSRRLRELQAKVEDREYGPLDALGLLKETATAKFGEAAEAHIRLGIDPKYTDQQLRTTVALPKGTGQIVRVAVIARGEKVTEASNAGADVVGSEELIDEIQKGRMDFDKLIATPDVMPQVAKLGKMLGPRGLMPSPKGGTVTFDVASAIAEFKAGKLEFRADRTGIVHVMFGKASFSPEDLLVNLKALQETIDRNRPSGAKGRYWRTFYVSATMGPSIRVDINALRDYKLTEAA
B3: S21 (protein, UniProt P0A4B7 1-62)
chain: MTQIVVGENEHIESALRRFKREVSKAGIFQDMRKHRHFETPIEKSKRKKLALHKQSKRRFRT
B4: L15 (protein, UniProt Q8YPJ6 1-148)
chain: MRLNDVKPQKGSKKRRRRVGRGISAGQGASAGLGMRGQKSRSGSGTRPGFEGGQQPLYRRIPKLKGFPVVNRKIYTTINVEKLADLPANTEVTLESLRAAGILTAAKGPLKILGNGDLGVALNVKAAAFTGQARSKIEAAGGSCEVLG
B5: S10 (protein, UniProt Q8YP64 1-105)
chain: MATLQQQKIRIRLQAFDRRLLDTSCEKIVDTANRTNATAIGPIPLPTKRKIYCVLRSPHVDKDSREHFETRTHRRIIDIYQPSSKTIDALMKLDLPSGVDIEVKL
B6: S7 (protein, UniProt Q8YP61 1-156)
chain: MSRRGVIQRRPVPPDSVYNSRLVSMIIRRIMRHGKKSLAARIVYDALKTIEERTGNNALEVFERAVRNATPLVEVKARRVGGATYQVPMEVRTERGTTLALRWLVQFSRSRPGRTMASRLANELLDAANESGNAIRKREETHRMAEANKAFAHYRY
B7: RpoA (protein, UniProt Q8YPK3 1-315)
chain: MAQFQIECVESNTEESRNHYSKFILEPLERGQGTTVGNALRRVLLSNLEGTAVTAVRIAGVSHEFATVPGVREDVLEIIMRMKEVILKSYSSQAQIGRLLVNGPTTITASHFDLPSEVEVIDPTQYVATIAEGGKLEMEFRIERGKGYRTVERGREEATSLDFLQIDSIFMPVRKVNYSVEEVRADGSIPKDRLLLEVWTNGSISPQEALSSAAGILVDLFNPLKDISLEPTDTNSDIPDDPTAQIPIEELQLSVRAYNCLKRAQVNSVADLLDYTQEDLLEIKNFGQKSAEEVVEALQRRLGITLPQERSSKHN
B8: RpoC2 (protein, UniProt P22705 1-1355)
chain: MTNEKMIFRNRVVDKGQLRNLISWAFTHYGTARTAVMADKLKDLGFRYATRAGVSISVDDLMVPPSKRSLLEAAEEEIRATEVRYQRGEITEVERFQKVIDTWNGTSEALKDEVVTHFKQTNPLNSVYMMAFSGARGNISQVRQLVGMRGLMADPQGEIIDLPIKTNFREGLTVTEYIISSYGARKGLVDTALRTADSGYLTRRLVDVSQDVIIREIDCGTTRGIPVRPMTEGSKTLIKLSTRLLGRVVGEDVIHPKTKEVIAPRNTPISDDLAKEIEKAGVAEVVVRSPLTCEAARSVCQHCYGWSLAHAKMVDLGEAVGIIAAQSIGEPGTQLTMRTFHTGGVFTGEVAQQVRSKMDGTIKLPRKLRTRTHRTRHGEDALFVESNGIMILEPRKEGSETPAPQEIHVTQGSTIYIVDGQQVKKGQLLAEVALGGRTTRTNTEKAVKDVASDLAGEVKFAEVVPEQKTDRQGNTTTTAARGGLIWILSGEVYNLPPGAELVVKNGDRVETNGVLAETKLTTIHGGVVRLPEATPGKSTREIEIITASVVLDQATVTVQSSQGRNNYLITTGNNQVFNLRATPGTKVQNGQVVAELIDDRYRTTTGGFLKFAGVEVQKKGKAKLGYEVVQGGTLLWIPEETHEVNKDISLLLVEDGQYVEAGTEVVKDIFCQNSGVVEVTQKNDILREVVVKPGELLMVDDPEAVIGRDNTLLQPGEELLGQVATELRYIQYVESPEGPALLSRPVVEFAVPSNPDVPSTTSVSQQTGRSIQMRAVQRLPYKDSERVKSVEGVELLRTQLVLEIEQEGEQEHNASPLAADIELIPDLEDADVQRLQLVILESLVLRRDIAADATQGSTQTSLEVKDGDTIVPGSVVARTQILSKEGGIVRGVQKGSEAVRRCLVLRHSDMATLNISAKPKVKAGDLIVAGTELAPGIFAEESGQIVGVKNAGESTTTQDAALSTQNYAVTIRAGRPYRVSPGAVLQIEDGDLVQRGDNLVLLVFERAKTGDIIQGLPRIEELLEARKPKEACILAKRGGEVKVVYGDGDEAIAIKVIESNGVVTDYPLGPGQNLAMPDGSVVPAGQPLSDGPSNPHEILEVFFSLGSEDGVYACASHALQKVQTFLVNEVQMVYQSQGIDIADKHIEVIVRQMTNKVRIDDGGDTTMLPGELVELRQVEQVNEAMAITGGARAQYTPVLLGITKASLNTDSFISAASFQETTRVLTEAAIEGKSDWLRGLKENVIIGRLIPAGTGYNTYDEPGMLEDYSTLETTSVLDETDDPLDMVLDDRTARAYNLDSPGLAETGFNNRRSILDDDELIADEIHDLVEAEVEVDDEVDDDYEDDDEDDDDYED
B9: S8 (protein, UniProt Q8YPJ2 1-133)
chain: MAANDTIADMLTRIRNANMARHQTTLVPATKMTRSIAKVLQEEGFIAEISEEGDEVKRNLVIALKYKGKNRQPLITALKRVSKPGLRVYSNRKELPRVLGGIGIAIISTSSGIMTDREARRQNVGGEVLCYVW
B10: RpoO (protein, UniProt Q8YNB9 1-78)
chain: MLKRSKFETTQSQIMHRAEDLISAASNRYRITVQVANRAKRRRYEEFESAEDAMMKPVLRAIIEMSDELTQPEIIGEI
B11: Ssb1 (protein, UniProt P0A4K0 1-119)
chain: MSINIVTLVGRVGTDPDIKYFESGSVKCRLTLAVNRRSKNDKPDWFTLELWDKTAEVAGNYVRKGSLIGVKGSLKFDSWSDRQTGVNRSTPVIRVDQLELLGSKQDRDGGSSDFAPENF
B12: L5 (protein, UniProt Q8YPJ1 1-182)
chain: MATTRLKTLYQETIVPKLTQQFQYTNVHQVPKLVKITVNRGLGEAAQNAKSLEASLTEIATITGQKPVVTRAKKAIAGFKIRQGMPVGIMVTLRGERMYAFFDRLISLSLPRIRDFRGISPKSFDGRGNYTLGVREQLIFPEIEYDSIDQIRGLDISIITTAKNDEEGRALLKEFGMPFRDQ
B13: PurC (protein, UniProt Q8YUR7 1-245)
chain: MSVHSKLYEGKAKILYTTDEPEVLLADFKDDATAFNAQKRGSIIGKGRINCSISSQLFQQLEASGIKTHFIDSPAPNQMRVKAVKIIPLEVVIRNIAAGSLSQQTGIELGTVLKQPLVEFYYKNDQLGDPLLTRDRLLLMELATAEQVEEITHLALQINDFLKNFWQNCGITLVDFKLEFGLDSQQQILLADEISPDTCRLWNTTEADPNRRVMDKDRFRRDLGNVEDAYQEVLQRVLTAVEIKN
B14: RecA (protein, UniProt P58552 1-357)
chain: MAINTDTSGKQKALTMVLNQIERSFGKGAIMRLGDATRMRVETISTGALTLDLALGGGLPKGRVIEIYGPESSGKTTVALHAIAEVQKEGGIAAFVDAEHALDPTYASALGVDIQNLLVSQPDTGESALEIVDQLVRSAAVDIVVIDSVAALVPRAEIEGDMGDAHVGLQARLMSQALRKITGNIGKSGCTVIFINQLRQKIGVTYGSPETTTGGNALKFYASVRLDIRRIQTLKKGTDEFGNRVKVKVAKNKVAPPFRIAEFDIIFGKGVSTLGCLVDLAEETGILIRKGAWYSYNGDNISQGRDNAIKYLEEKPEFSEQIKQQVREKLDKGAVVSANSVAKNNEDDEDEDVEEEE
B15: IlvC (protein, UniProt Q8YUM5 1-331)
chain: MARMYYDEDANLDLLAGKTIAIIGYGSQGHAHALNLKDSGLNVIVGLYPGSKSAEKAQAAGLTVKNVADAANIADFIMILLPDEVQKTVYKNEIEPNLQEGNTLAFAHGFNIHFGQVVPPANVDVVMVAPKGPGHLVRRTYEQGQGVPALFAVYQDASGKARDRALSYAKGIGGTRGGVLETTFREETETDLFGEQAVLCGGLSALIKAGFETLVEAGYQPELAYFECLHEVKLIVDLVVEGGLAKMRDSISNTAEYGDYTRGPRIVNEQTKAEMRKVLSEIQSGQFAREFVLENQSGKPGFTAMRRQEAEHPIEEVGKDLRAMFSWLKKV
B16: Gap1 (protein, UniProt P80506 1-343)
chain: MAKLKVGINGFGRIGRLVLRAGINNPNIEFVGINDLVPPDNLAYLLKYDSTHGRLRSQVETKDDGIVIDGHFIPCVSVRNPAELPWGKLGADYVVESTGLFTDSEGASKHLQAGARRVIISAPTKDPDRVRTLLVGVNHDLFDPSKDLIVSNASCTTNCLAPIAKVINDNFGLTEGLMTTVHAMTATQPTVDGPSKKDWRGGRGAAQNIIPSSTGAAKAVALVLPELKGKLTGMAFRVPTPDVSVVDLTFKTAKATSYKEICAAMKQASEGSLAGILGYTDEEVVSTDFQGDTHSSIFDAGAGIELNSNFFKVVAWYDNEWGYSNRVVDLMLSMVQKEQLAAV
B17: L22 (protein, UniProt Q8YPI4 1-119)
chain: MATDTTEVKAIARFIRMSPYKVRRVLDQIRGLSYREALIILEFMPYRATEPVLTLLRSAAANAEHNAGLDRAELVITQAYADQGPVLKRFQPRAQGRAYQIRKPTCHITLAVAANAGAK
B18: CbbS (protein, UniProt P06514 1-109)
chain: MQTLPKERRYETLSYLPPLTDVQIEKQVQYILSQGYIPAVEFNEVSEPTELYWTLWKLPLFGAKTSREVLAEVQSCRSQYPGHYIRVVGFDNIKQCQILSFIVHKPSRY
B19: Asr0105 (protein, UniProt Q8Z0I8 1-88)
chain: MEIQLINIGFGNIVSANRVVAIVSPESAPIKRIITDARDKNQLIDATYGRRTRAVIITDSSHVILSAIQPETVANRFVISREHQSVEN
B20: ArgG (protein, UniProt Q8YMX6 1-400)
chain: MGRAKKVVLAYSGGVDTSVCIPYLKQEWGVEEVITLAADLGQGDELEPIREKALKSGASESLVADVKESFIKDYAFPAIQANALYENRYPLGTALARPLIAKILVEAAAKYGADAIAHGCTGKGNDQVRFDVSCTALNPNLKILAPAREWGMSREATIAYGEKFGIPSPVKKSSPYSIDKNLLGRSIEAGALEDPKFEPPEEIYEMTKAIADTPNEPEYIEIGFTQGLPTTLNGIPKDPVALIQELNQVVGSHGVGRIDMIENRLVGIKSREIYESPAMLVLIPAHRDLESLTLTADVSHYKRGIEETYSQIVYNGLWYSPLKAALDAFIQKTQERVSGTVRVKLFKGNATIVGRWSDSSLYTPDLATYGAEDQFDHKAAEGFIYVWGLPTRIWAQQDRG

Target: anaCyp40 with C-terminal Strep-tag (Anabaena sp. PCC 7120)
Experiment: affinity purification with mass spectrometry; Strep-tagged anaCyp40 from whole cell lysate of AFS-anacyp40-strep (1% β-DM, 100 mM Tris pH 8.0, 50 mM NaCl) on MagStrep type3 XT beads, 60 min at 4 °C; washes up to 100 mM NaCl and 0.5% Nonidet P-40; eluted with 50 mM D-biotin; wild-type Anabaena sp. as control; lysate not treated with RNAse or DNAse; LC-MS, p < 0.05

Row | Binder | binding
1 | B1 | binds
2 | B2 | binds
3 | B3 | binds
4 | B4 | binds
5 | B5 | binds
6 | B6 | binds
7 | B7 | binds
8 | B8 | binds
9 | B9 | binds
10 | B10 | binds
11 | B11 | binds
12 | B12 | binds
13 | B13 | binds
14 | B14 | binds
15 | B15 | binds
16 | B16 | binds
17 | B17 | binds
18 | B18 | binds
19 | B19 | binds
20 | B20 | binds
